Assay results as given in paper PMC8464644.
Results are given in words; binding and its absence hold for the method and conditions named. Binding seen in cells or lysates may run through a third protein.

Chains of the proteins cited; added tags and fusions are not shown.
UniProt P11142: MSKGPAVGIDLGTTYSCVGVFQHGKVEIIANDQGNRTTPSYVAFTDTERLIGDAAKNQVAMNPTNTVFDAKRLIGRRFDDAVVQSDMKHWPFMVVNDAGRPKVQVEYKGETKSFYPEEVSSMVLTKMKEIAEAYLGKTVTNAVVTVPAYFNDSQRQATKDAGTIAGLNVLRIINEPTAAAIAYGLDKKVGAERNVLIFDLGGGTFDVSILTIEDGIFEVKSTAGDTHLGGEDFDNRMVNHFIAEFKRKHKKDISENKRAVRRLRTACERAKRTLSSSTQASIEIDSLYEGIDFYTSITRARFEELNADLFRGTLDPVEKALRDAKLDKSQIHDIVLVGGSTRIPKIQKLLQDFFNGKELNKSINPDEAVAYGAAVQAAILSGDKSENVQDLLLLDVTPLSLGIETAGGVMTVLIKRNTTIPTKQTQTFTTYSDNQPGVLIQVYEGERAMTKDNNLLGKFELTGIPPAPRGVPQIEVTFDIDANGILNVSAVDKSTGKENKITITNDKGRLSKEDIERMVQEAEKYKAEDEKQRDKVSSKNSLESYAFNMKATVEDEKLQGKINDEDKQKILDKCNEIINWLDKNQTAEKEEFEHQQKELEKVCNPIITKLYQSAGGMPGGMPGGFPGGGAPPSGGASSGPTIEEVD

Biological target: APP-M7 (all three KFERQ-like CMA motifs mutated) (UniProt P05067)
Assay: co-IP; cells (HEK293T or SH-SY5Y) transfected with pcDNA5-APP or pcDNA5-APP-M7; TAP lysis buffer; APP antibodies on Protein A/G magnetic agarose beads 6 h at 4 °C; endogenous Hsc70 and Lamp2a detected by Western blot (Fig. S6F)

Substance: Hsc70 (endogenous) (from UniProt P11142 1-646)
- binding: no binding
